Experimental data published in PMC11655906.
Results are given in words; binding and its absence hold for the method and conditions named. Some entries that bind do so weakly or less than the wild type.

Legend:
Test in all cases: native gel or EMSA; native PAGE (4-16% Bis-Tris, G-250 additive) of lysates of transfected Fwe KO mouse CTLs (modified RIPA: 50 mM Tris pH 7.5, 50 mM NaCl, 1% Triton-X-100, 1 mM EDTA), western blot with anti-DsRed recognising mTFP; oligomeric state read from band size
[1] = molecular target: mFwe2(YRWL to AAAA)-mTFP (mouse) (UniProt Q8BG21)
[2] = molecular target: human Flower isoform 3 with C-terminal mTFP (hFwe3-mTFP) (human) (UniProt Q9UGQ2)
mFwe2(E74A)-mTFP (mouse) = mFwe2(E74A)-mTFP (mouse) (UniProt Q8BG21)
[3] = molecular target: mFwe2(Y104A)-mTFP (mouse) (UniProt Q8BG21)
[4] = molecular target: mFwe2(Y104F)-mTFP (mouse) (UniProt Q8BG21)
[5] = molecular target: dUbi(Y109A)-mTFP (Drosophila) (UniProt Q95T12)

B1: mFwe2(YRWL to AAAA)-mTFP (protein, UniProt Q8BG21-1 1-171)
chain: MSGSGAAGAAAGPAPPAQEEGMTWWAAAACRLAGVLGAVSCAISGLFNCVTIHPLNIAAGVWMIMNAFILLLCEAPFCCQFVEFANTVAEKVDRLRSWQKAVFYCGMAIVPIVMSLTLTTLLGNAIAFATGVLYGLSALGKKGDAISYARIQQQRQQADEEKLAETFEGEL
[1]
  binding: binds

B2: human Flower isoform 3 with C-terminal mTFP (hFwe3-mTFP) (protein, UniProt Q9UGQ2-2 1-130)
chain: MSSSGGAPGASASSAPPAQEEGMTWWYRWLCRLSGVLGAVSCAISGLFNCITIHPLNIAAGVWMMMAVVPIVISLTLTTLLGNAIAFATGVLYGLSALGKKGDAISYARIQQQRQQADEEKLAETLEGEL
[2]
  binding: binds

B3: mFwe2(E74A)-mTFP (protein, UniProt Q8BG21-1 1-171)
chain: MSGSGAAGAAAGPAPPAQEEGMTWWYRWLCRLAGVLGAVSCAISGLFNCVTIHPLNIAAGVWMIMNAFILLLCAAPFCCQFVEFANTVAEKVDRLRSWQKAVFYCGMAIVPIVMSLTLTTLLGNAIAFATGVLYGLSALGKKGDAISYARIQQQRQQADEEKLAETFEGEL
mFwe2(E74A)-mTFP (mouse)
  binding: binds

B4: mFwe2(Y104A)-mTFP (protein, UniProt Q8BG21-1 1-171)
chain: MSGSGAAGAAAGPAPPAQEEGMTWWYRWLCRLAGVLGAVSCAISGLFNCVTIHPLNIAAGVWMIMNAFILLLCEAPFCCQFVEFANTVAEKVDRLRSWQKAVFACGMAIVPIVMSLTLTTLLGNAIAFATGVLYGLSALGKKGDAISYARIQQQRQQADEEKLAETFEGEL
[3]
  binding: binds

B5: mFwe2(Y104F)-mTFP (protein, UniProt Q8BG21-1 1-171)
chain: MSGSGAAGAAAGPAPPAQEEGMTWWYRWLCRLAGVLGAVSCAISGLFNCVTIHPLNIAAGVWMIMNAFILLLCEAPFCCQFVEFANTVAEKVDRLRSWQKAVFFCGMAIVPIVMSLTLTTLLGNAIAFATGVLYGLSALGKKGDAISYARIQQQRQQADEEKLAETFEGEL
[4]
  binding: binds

B6: dUbi(Y109A)-mTFP (protein, UniProt Q95T12-1 1-194)
chain: MSFAEKITGLLARPNQQDPIGPEQPWYLKYGSRLLGIVAAFFAILFGLWNVFSIITLSVSCLVAGILQMVAGFVVMLLEAPCCFVCFGQVNEIAEKVESKPLYFRAGLAIAMAIPPIILCFGLASLFGSGLIFGTGVVYGMMALGKKASAEDMRAAAQQTFGGNTPAQTNDRAGIVNNAQPFSFTGAVGTDSNV
[5]
  binding: binds
